Screen size: about 320,000 compounds; about 22,000 (6.9%) were called active. Inconclusive results, whose numbers are uncertain, are shown with a selection of clear calls. The call rests on the fitted dose curve; in most records, active means well fitted inhibition curve with a large enough effect; inconclusive means small, poorly fitted or top-dose-only effect, or another doubt; inactive means no such curve, though single readings can be large or run the other way. Potencies of inconclusive entries are doubtful fits and often do not repeat.
assay: Primary qHTS for delayed death inhibitors of the malarial parasite plastid, 96 hour incubation; conditions: P. falciparum luciferase reporter growth; series mostly up to 28.7 µM
Procedure, shortened: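 Delayed-death screen, second-generation endpoint: infected erythrocytes, 2% hematocrit, 0.05% parasitemia final; 96 hours at 37 C, 5% CO2; luciferase detection reagent; luminescence decrease equals reduced growth.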
Potency means the concentration at half of the fitted maximal effect.

SMILES	Potency
Cc1ccc2nc(-c3ccncc3)cc(C(=O)NCCc3ccc(F)cc3)c2c1	inconclusive: 0.828 µM [inhibitor, partial curve, poor fit]
CNS(=O)(=O)c1cnccc1N1CCN(c2cccc(Cl)c2)CC1	inconclusive: 16.5 µM [inhibitor, single point]
COC(=O)c1ccc(Nc2nc(C)nc3c2nnn3Cc2ccccc2)cc1	inconclusive: 14.7 µM [inhibitor, single point]
CC1(C)Cc2c(sc3nc(SCC(=O)NCc4ccccc4)n(-c4ccccc4)c(=O)c23)CS1	inconclusive: 0.0928 µM [inhibitor, full curve, poor fit]
Cc1nn(C2CCS(=O)(=O)C2)c(Cl)c1/C=C/C(=O)OCC(=O)c1cc(C)n(-c2ccc(F)cc2)c1C (stereo not drawn)	inconclusive: 7.38 µM [inhibitor, partial curve, poor fit]
O=C(N/N=C/c1c(F)c(F)c(F)c(F)c1F)c1cccc(S(=O)(=O)N2CCOCC2)c1	inactive
COC(=O)Nc1ccc(S(=O)(=O)N2CCCC(C(=O)N3CCCCCC3)C2)cc1 (stereo not drawn)	inconclusive: 18.5 µM [inhibitor, single point]
CCC(C)NC(=O)Nc1ccc(Br)cc1 (stereo not drawn)	inconclusive: 9.28 µM [inhibitor, partial curve, poor fit]
CC1=CC(=C(C#N)c2nc3ccccc3s2)C=C(C)N1c1ccc(F)cc1	inconclusive: 2.62 µM [inhibitor, full curve, poor fit]
COc1cc2cc(C(=O)N/N=C/c3ccccc3Cl)[nH]c2cc1OC	inconclusive: 14.7 µM [inhibitor, single point]
CC(=O)C(Sc1ccc2nnc(-c3ccncc3)n2n1)C(C)=O	inactive
C=CCn1c(SCC(=O)Nc2cc(NC(C)=O)ccc2OC)nnc1-c1ccccn1	inactive
CCOCCn1c(=O)c2c(nc3n2CCCN3Cc2ccccc2)n(C)c1=O	inconclusive: 8.28 µM [inhibitor, partial curve, poor fit]
Cc1ccc(OCc2n[nH]c(=S)n2-c2ccccc2)cc1	inactive
CSC1=N/C(=C\c2ccc(F)cc2)C(=O)S1	inconclusive: 0.0026 µM [inhibitor, full curve, poor fit]
C=CCn1c(C(CCCC)CC(O)COCCC)n[nH]c1=S (stereo not drawn)	inactive
CCOc1cc(NC(=S)NCC(C)C)c(OCC)cc1NC(=O)c1cccs1	inconclusive: 18.5 µM [inhibitor, single point]
O=C(O)c1cccc(COc2ccc(CO)cc2Cl)c1	inconclusive: 12 µM [inhibitor, single point]
O=C(Nc1cccc(-c2nn[nH]n2)c1)c1cccs1	inconclusive: 18.5 µM [inhibitor, partial curve, poor fit]
Cc1cc(C(=O)NNC(=O)NC(C)C)no1	inactive
c1sc2[n+](c1C13CC4CC(CC(C4)C1)C3)CCS2	active: 2.94 µM
CC(=O)Nc1cccc(-c2nc3ccccc3[nH]2)c1	inconclusive: 9.28 µM [inhibitor, partial curve, poor fit]

SMILES	Potency
COc1ccc(C)cc1NC(=S)NNC(=O)c1ccccc1Cl	inconclusive: 18.5 µM [inhibitor, single point]
CN/N=C(\Cc1nc2ccccc2[nH]1)c1ccc([N+](=O)[O-])cc1	inconclusive: 14.7 µM [inhibitor, single point]
Cc1cccc(NC(=O)C2CCN(S(=O)(=O)c3ccc4c(c3)OCCO4)CC2)n1	inconclusive: 18.5 µM [inhibitor, single point]
CCOP(=O)(OCC)C(Nc1cccc(C(F)(F)F)c1)c1ccc(F)cc1 (stereo not drawn)	inconclusive: 11.7 µM [inhibitor, partial curve, poor fit]
Cc1ccc(S(=O)(=O)/N=C(\CCl)N2CCOCC2)cc1	inconclusive: 10.4 µM [inhibitor, single point]
CC1CCCC(C)N1C(=O)Cn1c(SCC(=O)NCc2ccc3c(c2)OCO3)nc2ccccc21 (stereo not drawn)	inactive
COc1cc2ccccc2cc1C(=O)N(CCN(C)C)c1nc2ccc(C)cc2s1	inactive
COc1cc(NS(=O)(=O)c2ccc3c(c2)oc(=O)n3C)cc(OC)c1OC	inconclusive: 14.7 µM [inhibitor, partial curve, poor fit]
COc1ccc(CNC(=O)c2cc3c(=O)n4cccc(C)c4nc3n(CC3CCCO3)c2=N)cc1 (stereo not drawn)	active: 5.22 µM
Fc1ccc(-n2c(Cc3cccs3)n[nH]c2=S)cc1Cl	inconclusive: 1.47 µM [inhibitor, partial curve, poor fit]
CN(C)C(CNC(=O)c1ccc2c(=O)n(-c3ccccc3F)c(=S)[nH]c2c1)Cc1ccccc1 (stereo not drawn)	inconclusive: 18.5 µM [inhibitor, single point]
CCOc1ccc(NC(=O)CN2CCN(Cc3c(F)cccc3F)CC2)cc1	inactive
Cc1cc(/C=C(\C#N)C(=O)N2CCCCC2)cc(C)c1O	inactive
CCOC(=O)N1CCN(C(=O)c2cc3cc(OC)c(OC)cc3[nH]2)CC1	inactive
COC(=O)c1ccc(-n2nnnc2SCC(=O)Nc2ccccc2F)cc1	inconclusive: 18.5 µM [inhibitor, single point]
Cn1c(=O)c2c(nc(CN3CCN(c4ccccc4)CC3)n2Cc2ccccc2Cl)n(C)c1=O	inconclusive: 3.7 µM [inhibitor, partial curve, poor fit]
CC(=O)c1cccc(Nc2cc(C)nc3c(C)cc(C)cc23)c1	inconclusive: 18.5 µM [inhibitor, single point]
CC(C)c1cccc(C(C)C)c1NC(=O)CN1C(=O)NC2(CCCCCCC2)C1=O	inconclusive: 18.5 µM [inhibitor, single point]
CC(Oc1ccccc1)C(=O)Nc1nc(-c2ccccn2)cs1 (stereo not drawn)	active: 2.33 µM
COc1cc2c(C(=O)NCCCN3CCN(c4cccc(Cl)c4)CC3)cn(C)c(=O)c2cc1OC	inconclusive: 9.28 µM [inhibitor, partial curve, poor fit]
COc1ccccc1C(=O)NCC(=O)OCc1csc(-c2ccccc2)n1	inactive

Reprinted at random: 3 entries already listed
SMILES	Potency
Cc1cccc(NC(=O)C2CCN(S(=O)(=O)c3ccc4c(c3)OCCO4)CC2)n1	inconclusive: 18.5 µM [inhibitor, single point]
COc1ccc(C)cc1NC(=S)NNC(=O)c1ccccc1Cl	inconclusive: 18.5 µM [inhibitor, single point]
CCOC(=O)N1CCN(C(=O)c2cc3cc(OC)c(OC)cc3[nH]2)CC1	inactive
